From paper PMC6606611, “A comparative analysis of secreted protein disulfide isomerases from the tropical co-endemic parasites Schistosoma mansoni and Leishmania major” (Scientific Reports, 2019) come the findings set out here.

Sequences of proteins named here, by UniProt entry; tags and fusion partners are left off. A change or cut given only in a name is not applied to a line headed by its entry. Residues count along the entry.
UniProt P04004, residues 20-478: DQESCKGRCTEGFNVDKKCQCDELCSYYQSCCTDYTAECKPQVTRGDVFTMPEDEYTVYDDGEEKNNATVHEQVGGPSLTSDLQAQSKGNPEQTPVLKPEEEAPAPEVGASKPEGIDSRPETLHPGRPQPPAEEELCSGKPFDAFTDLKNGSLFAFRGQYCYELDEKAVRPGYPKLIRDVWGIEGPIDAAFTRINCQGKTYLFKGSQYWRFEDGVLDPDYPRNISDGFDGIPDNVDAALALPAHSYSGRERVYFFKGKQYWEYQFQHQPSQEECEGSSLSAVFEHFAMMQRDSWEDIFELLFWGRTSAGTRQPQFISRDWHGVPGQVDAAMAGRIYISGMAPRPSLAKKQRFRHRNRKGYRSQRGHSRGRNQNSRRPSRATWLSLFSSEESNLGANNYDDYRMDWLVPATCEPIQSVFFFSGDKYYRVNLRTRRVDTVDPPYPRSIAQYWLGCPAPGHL
UniProt P15502, residues 27-786: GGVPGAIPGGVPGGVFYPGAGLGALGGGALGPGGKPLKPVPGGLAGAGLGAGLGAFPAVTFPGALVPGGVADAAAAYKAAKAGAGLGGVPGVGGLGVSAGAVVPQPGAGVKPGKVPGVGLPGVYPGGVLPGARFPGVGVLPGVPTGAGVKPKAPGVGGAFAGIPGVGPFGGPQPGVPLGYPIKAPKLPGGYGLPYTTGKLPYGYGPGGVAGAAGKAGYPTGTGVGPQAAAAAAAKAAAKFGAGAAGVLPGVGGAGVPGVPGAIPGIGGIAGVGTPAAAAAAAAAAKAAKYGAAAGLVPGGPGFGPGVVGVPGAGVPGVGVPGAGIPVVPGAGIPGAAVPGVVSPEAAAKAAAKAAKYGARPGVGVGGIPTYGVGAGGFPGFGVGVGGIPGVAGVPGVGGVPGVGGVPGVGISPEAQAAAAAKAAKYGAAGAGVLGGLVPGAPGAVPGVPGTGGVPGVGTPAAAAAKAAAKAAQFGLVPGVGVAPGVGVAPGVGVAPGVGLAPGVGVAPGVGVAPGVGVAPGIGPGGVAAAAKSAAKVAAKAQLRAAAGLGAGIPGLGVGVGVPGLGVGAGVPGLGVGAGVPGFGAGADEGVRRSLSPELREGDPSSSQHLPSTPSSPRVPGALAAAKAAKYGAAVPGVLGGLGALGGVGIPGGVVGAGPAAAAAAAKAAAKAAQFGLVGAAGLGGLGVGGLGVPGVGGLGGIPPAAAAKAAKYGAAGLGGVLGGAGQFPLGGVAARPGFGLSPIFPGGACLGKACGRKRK
UniProt P07996, residues 19-1170: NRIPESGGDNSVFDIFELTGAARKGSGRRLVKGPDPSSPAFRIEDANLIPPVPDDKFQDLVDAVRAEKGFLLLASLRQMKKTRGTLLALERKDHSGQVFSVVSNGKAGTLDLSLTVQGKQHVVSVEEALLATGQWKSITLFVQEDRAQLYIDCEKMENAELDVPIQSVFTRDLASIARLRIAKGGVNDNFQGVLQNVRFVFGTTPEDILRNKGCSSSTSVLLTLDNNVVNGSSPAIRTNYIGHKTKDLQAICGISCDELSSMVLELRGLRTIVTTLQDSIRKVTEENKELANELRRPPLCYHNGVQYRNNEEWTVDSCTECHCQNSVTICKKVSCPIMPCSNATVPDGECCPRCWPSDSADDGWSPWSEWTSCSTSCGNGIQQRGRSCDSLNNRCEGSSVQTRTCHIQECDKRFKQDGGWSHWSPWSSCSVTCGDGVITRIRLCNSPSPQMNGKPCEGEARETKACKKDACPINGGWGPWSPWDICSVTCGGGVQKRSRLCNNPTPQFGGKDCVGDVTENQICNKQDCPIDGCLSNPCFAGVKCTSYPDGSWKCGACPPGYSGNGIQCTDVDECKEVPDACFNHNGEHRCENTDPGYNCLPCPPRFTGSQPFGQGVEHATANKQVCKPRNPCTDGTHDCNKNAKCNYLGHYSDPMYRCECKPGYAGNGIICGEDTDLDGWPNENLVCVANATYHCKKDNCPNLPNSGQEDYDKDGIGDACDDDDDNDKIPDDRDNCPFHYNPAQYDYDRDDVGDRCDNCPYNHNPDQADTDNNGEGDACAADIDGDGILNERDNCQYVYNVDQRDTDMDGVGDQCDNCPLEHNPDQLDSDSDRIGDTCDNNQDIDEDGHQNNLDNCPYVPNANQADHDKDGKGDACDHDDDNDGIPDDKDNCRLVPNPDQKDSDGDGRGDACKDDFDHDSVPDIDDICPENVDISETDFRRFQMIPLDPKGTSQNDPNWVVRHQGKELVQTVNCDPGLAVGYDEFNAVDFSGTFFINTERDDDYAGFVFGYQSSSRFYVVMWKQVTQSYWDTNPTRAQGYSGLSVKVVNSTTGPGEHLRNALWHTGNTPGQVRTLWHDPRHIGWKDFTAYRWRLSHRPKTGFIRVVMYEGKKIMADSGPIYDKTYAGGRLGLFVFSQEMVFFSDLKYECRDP
UniProt P00747: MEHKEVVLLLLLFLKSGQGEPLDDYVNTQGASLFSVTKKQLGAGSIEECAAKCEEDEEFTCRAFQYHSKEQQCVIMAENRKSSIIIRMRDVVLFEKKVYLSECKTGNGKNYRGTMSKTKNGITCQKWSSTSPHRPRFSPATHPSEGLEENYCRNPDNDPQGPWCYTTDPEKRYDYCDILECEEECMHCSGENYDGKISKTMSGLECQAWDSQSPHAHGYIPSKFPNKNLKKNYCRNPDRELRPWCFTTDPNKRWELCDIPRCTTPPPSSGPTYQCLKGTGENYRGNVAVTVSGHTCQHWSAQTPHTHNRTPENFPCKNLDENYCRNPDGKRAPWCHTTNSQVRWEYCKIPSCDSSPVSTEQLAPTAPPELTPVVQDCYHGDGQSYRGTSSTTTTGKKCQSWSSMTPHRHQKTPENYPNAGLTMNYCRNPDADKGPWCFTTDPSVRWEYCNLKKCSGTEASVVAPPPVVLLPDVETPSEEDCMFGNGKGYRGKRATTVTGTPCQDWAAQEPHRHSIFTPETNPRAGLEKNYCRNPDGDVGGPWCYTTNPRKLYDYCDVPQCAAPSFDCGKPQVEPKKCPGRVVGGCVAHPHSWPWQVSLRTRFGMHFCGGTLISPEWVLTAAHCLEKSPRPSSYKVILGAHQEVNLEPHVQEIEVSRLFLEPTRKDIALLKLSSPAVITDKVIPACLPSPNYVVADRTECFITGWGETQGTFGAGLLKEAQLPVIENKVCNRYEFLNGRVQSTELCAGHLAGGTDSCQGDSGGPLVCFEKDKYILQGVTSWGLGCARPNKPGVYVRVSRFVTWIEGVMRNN
UniProt Q9H6X2, residues 33-321: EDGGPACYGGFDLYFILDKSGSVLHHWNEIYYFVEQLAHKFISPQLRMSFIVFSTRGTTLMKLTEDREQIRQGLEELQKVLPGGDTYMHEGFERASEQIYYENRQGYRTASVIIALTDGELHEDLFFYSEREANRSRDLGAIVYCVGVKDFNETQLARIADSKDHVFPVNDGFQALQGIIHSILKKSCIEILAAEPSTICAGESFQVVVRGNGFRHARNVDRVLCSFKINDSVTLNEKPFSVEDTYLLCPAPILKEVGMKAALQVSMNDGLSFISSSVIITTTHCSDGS
UniProt P38658: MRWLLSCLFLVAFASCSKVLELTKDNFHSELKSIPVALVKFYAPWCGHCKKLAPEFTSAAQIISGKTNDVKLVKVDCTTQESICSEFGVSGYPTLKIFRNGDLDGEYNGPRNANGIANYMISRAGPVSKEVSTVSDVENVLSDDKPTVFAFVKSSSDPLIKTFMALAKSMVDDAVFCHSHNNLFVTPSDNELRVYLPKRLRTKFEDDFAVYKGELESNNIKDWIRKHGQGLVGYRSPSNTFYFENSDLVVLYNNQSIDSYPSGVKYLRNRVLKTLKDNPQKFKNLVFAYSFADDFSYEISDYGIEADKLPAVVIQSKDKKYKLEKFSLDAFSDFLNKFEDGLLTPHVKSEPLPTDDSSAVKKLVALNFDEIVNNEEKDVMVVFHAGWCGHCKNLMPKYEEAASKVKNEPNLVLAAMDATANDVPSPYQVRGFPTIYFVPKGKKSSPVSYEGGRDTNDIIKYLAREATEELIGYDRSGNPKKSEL

No constants are given. Whether binding was seen depends on the method and setting. For some of these results: Binding can be weak; no strength is given.

Targets include vitronectin (UniProt P04004); Tropoelastin (human) (UniProt P15502); thrombospondin-1 (UniProt P07996); Plasminogen (human) (UniProt P00747).
What all share (experiment): SPR; both purified
(In general: In SPR one partner is held on a chip, and binding of the other changes the refractive index at the surface.)

Assay [1] has as its target ectodomain of the tumor endothelial marker 8 (TEM-8), also known as anthrax receptor 1 (human) (UniProt Q9H6X2).

On to “Leishmania major Protein Disulfide Isomerase (from UniProt Q8I8E1) (enzyme)”, for which the binding entry (with vitronectin; with Tropoelastin (human); with thrombospondin-1; in assay [1]; with Plasminogen (human)) was “no binding (tested: 500 nM)” throughout.

With “Schistosoma mansoni Endoplasmic Reticulum protein 60 (protein disulfide isomerase) (from UniProt P38658) (enzyme)”, the binding entry with vitronectin is “no binding (tested: 500 nM)”; with Tropoelastin (human) it was “binds”; in the assay with thrombospondin-1, “no binding (tested: 500 nM)”; in assay [1], “binds”; with Plasminogen (human), “binds”.
